Assay results published in patent publication US6342368B1, “WD-40-derived peptides and uses thereof” (The Board of Trustees of the Leland Stanford Junior …, priority 1994, dated 2002).
No constants are given. Whether binding was seen depends on the method and setting. Some binding calls cover weakened binding; strength is not graded here.

Chains of the proteins cited; added tags and fusions are not shown. Residues count along the entry.
UniProt P68403, residues 2-671: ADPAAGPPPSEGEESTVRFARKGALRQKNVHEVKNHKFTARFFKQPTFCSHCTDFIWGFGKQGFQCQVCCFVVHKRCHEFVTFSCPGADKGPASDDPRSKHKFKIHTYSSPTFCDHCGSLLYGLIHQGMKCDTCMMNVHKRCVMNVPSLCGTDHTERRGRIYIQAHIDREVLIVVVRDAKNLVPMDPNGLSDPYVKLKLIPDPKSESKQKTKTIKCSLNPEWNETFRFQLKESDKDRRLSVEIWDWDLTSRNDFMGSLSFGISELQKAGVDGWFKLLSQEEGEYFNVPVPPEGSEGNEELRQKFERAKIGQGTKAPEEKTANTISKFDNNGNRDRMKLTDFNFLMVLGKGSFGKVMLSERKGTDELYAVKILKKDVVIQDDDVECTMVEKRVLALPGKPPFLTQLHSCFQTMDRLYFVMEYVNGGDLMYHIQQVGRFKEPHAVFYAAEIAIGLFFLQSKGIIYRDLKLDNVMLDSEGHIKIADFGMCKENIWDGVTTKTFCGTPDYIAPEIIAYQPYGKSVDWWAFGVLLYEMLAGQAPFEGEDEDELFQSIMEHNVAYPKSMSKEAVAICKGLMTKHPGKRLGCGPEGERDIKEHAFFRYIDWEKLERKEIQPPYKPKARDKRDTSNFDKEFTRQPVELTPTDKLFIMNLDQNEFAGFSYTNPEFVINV

Legend:
[1] = biological target: βPKC (rat brain protein kinase C, β isozyme) (rat) (UniProt P68403); assay: slot-blot PKC overlay of immobilized peptide
[2] = biological target: βPKC (rat brain protein kinase C, β isozyme) (rat) (UniProt P68403); assay: slot-blot PKC overlay of immobilized peptide, 5 nM rat brain PKC with and without PS, DG and calcium, anti-βPKC detection
[3] = biological target: βPKC (rat brain protein kinase C, β isozyme) (rat) (UniProt P68403); assay: slot-blot PKC overlay of immobilized peptide (FIG. 4)

Measured: binding

B1: peptide rVI (peptide)
peptide: DIINALCF
binds: all assays above
